The values that follow come from article PMC4747493.

Chains of the proteins cited; added tags and fusions are not shown.
UniProt Q09472: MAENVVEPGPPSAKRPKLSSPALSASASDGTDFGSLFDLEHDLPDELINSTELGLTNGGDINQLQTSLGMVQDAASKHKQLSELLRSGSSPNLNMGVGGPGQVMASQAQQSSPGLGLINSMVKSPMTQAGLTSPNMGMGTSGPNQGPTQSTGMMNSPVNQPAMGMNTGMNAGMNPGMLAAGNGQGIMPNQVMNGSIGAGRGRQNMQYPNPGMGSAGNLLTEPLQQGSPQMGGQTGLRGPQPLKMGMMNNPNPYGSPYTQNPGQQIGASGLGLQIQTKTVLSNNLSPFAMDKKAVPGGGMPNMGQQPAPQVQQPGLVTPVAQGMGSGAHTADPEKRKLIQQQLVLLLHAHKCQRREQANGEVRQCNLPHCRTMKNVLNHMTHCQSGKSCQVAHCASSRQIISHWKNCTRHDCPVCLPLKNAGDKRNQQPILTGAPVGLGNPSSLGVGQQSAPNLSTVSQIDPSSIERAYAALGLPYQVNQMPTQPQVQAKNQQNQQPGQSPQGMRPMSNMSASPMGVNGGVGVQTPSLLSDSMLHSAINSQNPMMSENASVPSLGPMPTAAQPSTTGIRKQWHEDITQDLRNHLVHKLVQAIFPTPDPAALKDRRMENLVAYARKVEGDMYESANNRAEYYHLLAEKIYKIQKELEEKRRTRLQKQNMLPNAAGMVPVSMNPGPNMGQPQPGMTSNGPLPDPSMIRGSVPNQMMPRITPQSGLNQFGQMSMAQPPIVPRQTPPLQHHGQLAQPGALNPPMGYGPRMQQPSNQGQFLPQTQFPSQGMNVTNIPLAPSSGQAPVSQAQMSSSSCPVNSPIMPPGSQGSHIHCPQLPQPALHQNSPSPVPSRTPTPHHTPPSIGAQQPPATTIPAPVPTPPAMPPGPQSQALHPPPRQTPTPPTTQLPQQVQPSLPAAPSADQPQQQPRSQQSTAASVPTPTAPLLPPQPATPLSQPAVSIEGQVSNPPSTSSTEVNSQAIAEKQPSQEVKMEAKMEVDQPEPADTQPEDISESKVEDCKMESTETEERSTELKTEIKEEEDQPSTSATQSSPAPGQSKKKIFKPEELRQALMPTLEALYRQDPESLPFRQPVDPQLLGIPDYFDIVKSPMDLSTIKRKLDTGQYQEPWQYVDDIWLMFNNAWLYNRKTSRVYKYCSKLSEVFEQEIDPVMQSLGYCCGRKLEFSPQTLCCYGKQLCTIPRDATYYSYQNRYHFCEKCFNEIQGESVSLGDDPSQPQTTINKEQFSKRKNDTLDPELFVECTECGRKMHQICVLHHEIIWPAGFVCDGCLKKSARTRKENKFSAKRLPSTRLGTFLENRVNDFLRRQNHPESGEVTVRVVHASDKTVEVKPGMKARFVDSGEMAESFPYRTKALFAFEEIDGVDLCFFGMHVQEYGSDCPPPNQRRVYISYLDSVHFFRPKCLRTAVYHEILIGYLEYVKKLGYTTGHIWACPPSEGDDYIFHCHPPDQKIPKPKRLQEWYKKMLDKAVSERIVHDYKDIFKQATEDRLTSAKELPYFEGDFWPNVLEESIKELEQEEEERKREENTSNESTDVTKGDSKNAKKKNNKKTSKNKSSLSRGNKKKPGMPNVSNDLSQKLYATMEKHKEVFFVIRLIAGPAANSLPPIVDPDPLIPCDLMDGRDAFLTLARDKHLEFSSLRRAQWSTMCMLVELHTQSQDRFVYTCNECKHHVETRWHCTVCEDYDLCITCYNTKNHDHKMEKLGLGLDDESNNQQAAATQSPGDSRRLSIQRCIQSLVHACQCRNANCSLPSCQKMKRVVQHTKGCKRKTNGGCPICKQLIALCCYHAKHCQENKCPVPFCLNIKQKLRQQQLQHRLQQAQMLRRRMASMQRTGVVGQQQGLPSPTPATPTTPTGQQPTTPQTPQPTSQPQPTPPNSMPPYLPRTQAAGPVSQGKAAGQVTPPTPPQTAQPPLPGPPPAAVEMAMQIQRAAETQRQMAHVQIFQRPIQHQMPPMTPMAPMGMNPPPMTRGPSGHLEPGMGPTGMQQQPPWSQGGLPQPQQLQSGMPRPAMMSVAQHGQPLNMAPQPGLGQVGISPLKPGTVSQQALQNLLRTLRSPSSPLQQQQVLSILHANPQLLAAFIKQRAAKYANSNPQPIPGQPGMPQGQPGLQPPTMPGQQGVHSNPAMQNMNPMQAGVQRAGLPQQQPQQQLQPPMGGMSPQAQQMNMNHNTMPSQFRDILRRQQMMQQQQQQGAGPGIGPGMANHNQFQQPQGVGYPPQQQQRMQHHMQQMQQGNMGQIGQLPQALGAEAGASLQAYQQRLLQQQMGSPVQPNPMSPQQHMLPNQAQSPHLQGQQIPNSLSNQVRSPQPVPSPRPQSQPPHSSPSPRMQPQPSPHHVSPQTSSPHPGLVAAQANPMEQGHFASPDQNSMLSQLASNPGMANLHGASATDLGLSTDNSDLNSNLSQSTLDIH

This test has as its target T1, DUSP4 (human (endogenous in MCF-7)) (UniProt Q13115).
T1 sequence: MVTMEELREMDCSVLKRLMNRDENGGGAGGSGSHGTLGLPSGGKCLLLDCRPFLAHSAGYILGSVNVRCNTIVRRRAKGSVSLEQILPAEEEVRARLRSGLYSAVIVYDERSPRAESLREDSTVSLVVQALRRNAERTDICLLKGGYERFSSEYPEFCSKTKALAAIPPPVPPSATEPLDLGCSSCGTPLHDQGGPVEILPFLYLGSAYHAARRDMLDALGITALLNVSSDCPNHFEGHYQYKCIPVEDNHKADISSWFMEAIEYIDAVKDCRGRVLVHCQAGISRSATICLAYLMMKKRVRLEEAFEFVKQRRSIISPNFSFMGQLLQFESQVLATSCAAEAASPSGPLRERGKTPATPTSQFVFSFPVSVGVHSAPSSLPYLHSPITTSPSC
Kind of test: co-IP; half-ChIP: nuclear extracts of MCF-7 cells treated with vehicle or PMA for 60 h (MCF-7/PMA^AD); fixed chromatin sonicated to about 500 bp; soluble chromatin fraction incubated overnight at 4°C with anti-DUSP4 (sc-17821) and Protein A magnetic beads, or no antibody control; beads boiled in loading buffer and immunoblotted. In general terms: A western blot detects proteins with antibodies after separation by electrophoresis.

Results are given in words; binding and its absence hold for the method and conditions named. In cells and extracts the contact can be indirect. Some binding calls cover weakened binding; strength is not graded here.

On to “p300 phosphorylated at Ser-1834 (from UniProt Q09472 1-2414) (enzyme)”, for which the binding entry is listed as “binds”.
